Earlier results, collected in EP4233849A1, “PHARMACEUTICAL COMPOSITION COMPRISING POMALIDOMIDE” (KRKA, d.d., Novo mesto, priority 2022, dated 2023).
The name of at least one read-out is uncertain.

Conditions: according to BCS classification

## Nc1cccc2c1C(=O)N(C1CCC(=O)NC1=O)C2=O (racemic) [Pomalidomide, (RS) 4-Amino-2-(2,6-dioxopiperidin-3-yl)isoindole-1,3-dione]
  permeability: low permeability
